About 4,500 (1.3%) of roughly 340,000 compounds were called active. This list was built around the results that the source calls inconclusive (neither active nor inactive); the mix of calls is not that of the screen. The call rests on the fitted dose curve; in most records, active means well fitted inhibition curve with a large enough effect; inconclusive means small, poorly fitted or top-dose-only effect, or another doubt; inactive means no such curve, though single readings can be large or run the other way. Potencies beside an inconclusive call are fits to weak or partial responses and may not hold up.
target: DNA polymerase beta (Homo sapiens) (UniProt P06746); assay: qHTS Assay for Inhibitors of DNA Polymerase Beta; conditions: Pol beta primer extension/strand displacement, fluorescence kinetic; activity change, negative = inhibition: at 114 µM (top of the series)
Method in brief: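 Kinetic readout of DNA synthesis with strand displacement by Pol beta. Compound and 10 nM enzyme sit 15 min at room temperature; 50 nM substrate starts the reaction, read immediately and at 10 min.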
On the % scale 0 is the no-effect control and ±100 the full control effect; potency means the concentration at half of the fitted maximal effect.

SMILES | Potency | activity change, negative = inhibition
CCN(CC)Cc1c(O)c(Cl)cc2c(C)cc(=O)oc12 | active: 10 µM | 
O=C(NN1C(=O)C2CC=C(Cl)CC2C1=O)c1ccncc1 (stereo unspecified) | active: 3.16 µM | 
O=C(O)c1ccc(NS(=O)(=O)c2ccc3c(c2)C(=O)c2ccccc2C3=O)cc1 | inconclusive: 15.8 µM [inhibitor, partial curve] | 
COc1cc(/C=N\NC(=O)c2ccc(-c3ccccc3)cc2)cc(Br)c1O | active: 39.8 µM | 
C[C@H](NC(=O)N1CCn2c1nc1ccccc12)C(=O)NCc1ccc(F)cc1 |  | inconclusive: -35.6% [inhibitor]
C=C(C)C(=O)Nc1cccc(C2=NOC3(C2)C[C@@H](C(N)=O)N(C(=O)C2(C)CC2)C3)c1 (stereo partly specified) | active: 1.12 µM | 
CCN(CC)c1ccc(/C=C2\C(=O)c3ccc(C(=O)O)cc3C2=O)cc1 | active: 39.8 µM | 
CC(=O)c1ccc(NC(=O)c2nc(-c3ccc(C)cc3)n3c2CCCCC3)cc1 | inconclusive: 5.01 µM [inhibitor, full curve, poor fit] | 
COc1cc(/C=C(/C#N)c2nc(-c3cc4ccccc4oc3=O)cs2)cc([N+](=O)[O-])c1O | inconclusive: 56.2 µM [inhibitor, partial curve] | 
COc1ccc(OC)c(N(CC(=O)NCCSC2CCCCC2)S(=O)(=O)c2ccccc2)c1 | inconclusive: 0.794 µM [inhibitor, full curve, poor fit] | 
COc1ccc(OCC(=O)NNC(=O)c2ccc(-c3ccccc3)cc2)cc1 | active: 44.7 µM | 
COc1ccc(OC)c(N2CC(O)(c3cccs3)[N+]3=C2SCCC3)c1 (stereo unspecified) | inconclusive: 4.47 µM [inhibitor, single point] | 
O=C(NC(Cc1c[nH]c2ccccc12)C(=O)N/N=C/c1ccc(Cl)cc1)c1cccs1 (stereo unspecified) | inconclusive: 0.562 µM [inhibitor, full curve, poor fit] | 
CCOC(=O)c1ccccc1NC(=O)CN(c1ccccc1)S(=O)(=O)N(C)C | inconclusive: 31.6 µM [inhibitor, full curve] | 
O=C(O)c1ccccc1-c1nc(-c2ccccc2)c(-c2ccccc2)[nH]1 | inconclusive: 100 µM [inhibitor, single point] | 
COc1ccc(Nc2nc(N)nc(CSc3nccn3C)n2)cc1 | inconclusive: 89.1 µM [inhibitor, single point] | 
Cc1cc(C(=O)OCC(=O)Nc2sc3c(c2C#N)CCC(C)C3)c2ccccc2n1 (stereo unspecified) | active: 17.8 µM | 
Cc1cc(C)cc(N(CC(=O)O)S(=O)(=O)c2c(C)noc2C)c1 | inconclusive: 89.1 µM [inhibitor, single point] | 
O=C(COc1cccc(Cl)c1)N1CCC(c2nc3ccccc3o2)CC1 | inactive | 
C=CCn1c(SCC(=O)Nc2ccc(F)cc2)nc2cc(C(=O)O)ccc2c1=O | inactive | 
CC[n+]1c(/C=C(\C)OC)sc2ccccc21 | inactive | 
Cc1ccc2nc(-c3ccc(SCC(=O)Nc4ccc5c(c4)OCCO5)nc3)[nH]c2c1 | active: 14.1 µM | 
Cc1cc(O)c(Oc2cc(C)cc(O)c2O)c(O)c1 | active: 3.55 µM | 

By substructure, those above containing two or more sulfur atoms.
SMILES | Potency | activity change, negative = inhibition
COc1ccc(OC)c(N(CC(=O)NCCSC2CCCCC2)S(=O)(=O)c2ccccc2)c1 | inconclusive: 0.794 µM [inhibitor, full curve, poor fit] | 
COc1ccc(OC)c(N2CC(O)(c3cccs3)[N+]3=C2SCCC3)c1 (stereo unspecified) | inconclusive: 4.47 µM [inhibitor, single point] | 

Going on with the list:

SMILES | Potency | activity change, negative = inhibition
O=C(/C=C/c1ccc(Br)o1)Nc1nnc(C2CC2)s1 | active: 25.1 µM | 
c1ccc2cc(-c3cc4ccccn4c3)ccc2c1 | inconclusive: 0.794 µM [inhibitor, full curve, poor fit] | 
COc1ccc(C2=NOC(C)(c3nnc(-c4ccc(F)cc4)o3)C2)cc1 (stereo unspecified) | inconclusive: 100 µM [inhibitor, single point] | 
O=C(c1cccn1-c1nnc(N2CCCCC2)s1)N1CCN(c2ccc(Cl)cc2)CC1 | inconclusive: 89.1 µM [inhibitor, single point] | 
CCCCc1nnc(NC(=O)CC(=O)Nc2ccccc2C(=O)O)s1 | inactive | 
CS(=O)(=O)C1=NSC2=NC(=O)/C(=C\c3cccn3-c3ccccc3Cl)C(=N)N21 | active: 35.5 µM | 
COc1ccccc1NC(=O)CCSCCC(=O)Nc1ccccc1OC | active: 56.2 µM | 
Cc1cc(NC(=O)c2cccs2)n(-c2nc3ccccc3[nH]2)n1 | inconclusive: 10 µM [inhibitor, full curve] | 
COc1ccc(-c2nc(Cn3c(=O)cc(-c4ccccc4)c4c(C)nn(C)c43)c(C)o2)cc1OC | inactive | 
CCOc1ccc(Nc2nc3c(S(=O)(=O)c4ccc(CC)cc4)nnn3c3ccc(Cl)cc23)cc1 | inactive | 
Cc1nn(C)cc1S(=O)(=O)N1CCCCC1C (stereo unspecified) | inactive | 
CC(C)Oc1ccc(C(=O)NCc2cccnc2)cc1 | inconclusive: 3.16 µM [inhibitor, partial curve] | 
COc1ccc(/C=N/NC(=O)c2cccnc2)cc1CN1CCc2ccccc2C1 | inconclusive: 63.1 µM [inhibitor, single point] | 
CCCOC(=O)c1ccc(Oc2c(-c3ccc(OCC)cc3O)n[nH]c2C)cc1 | inconclusive: 14.1 µM [inhibitor, full curve, poor fit] | 
O=C(Nc1ccc(Cl)cc1C(=O)O)c1ccc2c(c1)C(=O)N(Cc1ccco1)C2=O | inconclusive: 31.6 µM [inhibitor, partial curve, poor fit] | 
O=C(NCCn1cc(SCc2ccccc2)c2ccccc21)c1cccs1 | inactive | 
CCCc1cc(=O)[nH]c(Nc2ccccc2O)n1 | inactive | 
COC(=O)c1c(C)[nH]c(C)c1-c1ccc(C)cc1 | inconclusive: 0.141 µM [inhibitor, full curve, poor fit] | 
NC(=O)C1CCN(C2=C(Cl)C(=O)c3ccccc3C2=O)CC1 | inconclusive: 12.6 µM [inhibitor, full curve] | 
Cc1ccc(OCCCN2C(=O)C(=O)c3cc(C)ccc32)cc1 | inconclusive: 89.1 µM [inhibitor, single point] | 
COC(=O)NNC(=S)Nc1cc(OC)ccc1OC | inconclusive: 0.141 µM [inhibitor, full curve, poor fit] | 
Cc1ccc(NC(=S)NN(C)c2nc(C)cnc2C)cc1 | inconclusive: 39.8 µM [inhibitor, single point] | 
Cc1cc(NCCN(C)C)n2nc(-c3cccs3)cc2n1 | inconclusive: 100 µM [inhibitor, single point] | 
